Test results published in paper PMC9238189.
No constants are given. Whether binding was seen depends on the method and setting. In cells and extracts the contact can be indirect. A yes stands for co-enrichment or nearness to the bait. Other partners may have been found. For some of these results: Where a sequence is shown, tags or fusion partners need not be part of it.

Sequences of proteins named here, by UniProt entry; tags and fusion partners are left off.
UniProt Q60598: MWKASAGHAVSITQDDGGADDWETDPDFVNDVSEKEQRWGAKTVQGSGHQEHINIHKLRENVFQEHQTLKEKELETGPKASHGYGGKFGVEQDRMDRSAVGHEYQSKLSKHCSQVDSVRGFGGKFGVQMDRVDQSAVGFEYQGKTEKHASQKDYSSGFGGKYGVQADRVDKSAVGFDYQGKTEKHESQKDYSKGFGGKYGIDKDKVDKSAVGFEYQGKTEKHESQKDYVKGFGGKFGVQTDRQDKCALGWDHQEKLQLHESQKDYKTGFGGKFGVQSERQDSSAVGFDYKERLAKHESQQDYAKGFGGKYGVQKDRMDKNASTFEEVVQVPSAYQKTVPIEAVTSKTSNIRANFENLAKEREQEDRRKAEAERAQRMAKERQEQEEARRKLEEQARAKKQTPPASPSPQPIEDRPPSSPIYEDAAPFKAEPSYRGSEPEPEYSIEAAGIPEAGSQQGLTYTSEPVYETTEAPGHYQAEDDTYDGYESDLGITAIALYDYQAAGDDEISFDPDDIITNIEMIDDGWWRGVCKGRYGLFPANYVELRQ
UniProt Q9JKF1: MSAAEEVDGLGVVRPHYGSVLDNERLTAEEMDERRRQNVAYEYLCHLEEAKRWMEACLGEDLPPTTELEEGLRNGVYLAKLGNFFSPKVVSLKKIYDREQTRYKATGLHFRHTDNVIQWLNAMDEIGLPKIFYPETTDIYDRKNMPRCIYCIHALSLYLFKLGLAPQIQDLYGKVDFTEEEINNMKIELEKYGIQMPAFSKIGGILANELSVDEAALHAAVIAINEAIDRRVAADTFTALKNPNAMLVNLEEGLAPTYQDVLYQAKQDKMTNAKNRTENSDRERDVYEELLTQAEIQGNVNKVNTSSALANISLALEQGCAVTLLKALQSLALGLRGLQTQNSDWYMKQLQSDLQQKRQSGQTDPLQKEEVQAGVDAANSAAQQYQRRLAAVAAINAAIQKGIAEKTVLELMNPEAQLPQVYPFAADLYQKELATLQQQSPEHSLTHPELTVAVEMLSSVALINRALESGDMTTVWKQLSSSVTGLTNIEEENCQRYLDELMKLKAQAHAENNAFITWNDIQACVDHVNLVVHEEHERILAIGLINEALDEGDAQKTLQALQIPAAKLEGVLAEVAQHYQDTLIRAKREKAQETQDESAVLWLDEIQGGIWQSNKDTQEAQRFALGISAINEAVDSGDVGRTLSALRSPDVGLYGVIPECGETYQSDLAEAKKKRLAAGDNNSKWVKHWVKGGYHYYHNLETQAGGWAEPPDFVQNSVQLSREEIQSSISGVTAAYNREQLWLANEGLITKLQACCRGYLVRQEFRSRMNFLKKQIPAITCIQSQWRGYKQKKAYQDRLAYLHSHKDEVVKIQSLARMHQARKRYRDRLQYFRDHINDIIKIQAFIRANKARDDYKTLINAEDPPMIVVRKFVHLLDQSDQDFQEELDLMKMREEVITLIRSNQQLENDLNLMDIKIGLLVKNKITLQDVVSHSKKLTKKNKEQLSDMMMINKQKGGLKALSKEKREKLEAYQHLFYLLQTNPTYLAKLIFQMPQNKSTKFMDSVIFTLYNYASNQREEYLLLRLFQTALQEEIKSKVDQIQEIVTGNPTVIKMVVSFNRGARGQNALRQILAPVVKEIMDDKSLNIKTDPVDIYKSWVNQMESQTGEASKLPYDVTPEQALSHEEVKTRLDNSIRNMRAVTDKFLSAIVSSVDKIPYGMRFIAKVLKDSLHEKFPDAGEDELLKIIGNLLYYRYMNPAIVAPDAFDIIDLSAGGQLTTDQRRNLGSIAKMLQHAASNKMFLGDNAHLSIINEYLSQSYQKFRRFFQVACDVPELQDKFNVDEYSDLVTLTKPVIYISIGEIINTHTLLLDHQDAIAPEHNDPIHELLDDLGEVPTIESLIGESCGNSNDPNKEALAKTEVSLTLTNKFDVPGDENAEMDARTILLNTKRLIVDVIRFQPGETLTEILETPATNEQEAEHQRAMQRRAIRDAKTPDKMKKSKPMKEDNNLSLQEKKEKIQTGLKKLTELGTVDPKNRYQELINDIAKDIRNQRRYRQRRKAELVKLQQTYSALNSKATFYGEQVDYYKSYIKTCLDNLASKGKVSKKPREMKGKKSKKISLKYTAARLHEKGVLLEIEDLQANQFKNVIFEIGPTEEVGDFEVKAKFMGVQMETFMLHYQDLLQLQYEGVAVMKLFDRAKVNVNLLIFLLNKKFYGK
UniProt Q7KZF4: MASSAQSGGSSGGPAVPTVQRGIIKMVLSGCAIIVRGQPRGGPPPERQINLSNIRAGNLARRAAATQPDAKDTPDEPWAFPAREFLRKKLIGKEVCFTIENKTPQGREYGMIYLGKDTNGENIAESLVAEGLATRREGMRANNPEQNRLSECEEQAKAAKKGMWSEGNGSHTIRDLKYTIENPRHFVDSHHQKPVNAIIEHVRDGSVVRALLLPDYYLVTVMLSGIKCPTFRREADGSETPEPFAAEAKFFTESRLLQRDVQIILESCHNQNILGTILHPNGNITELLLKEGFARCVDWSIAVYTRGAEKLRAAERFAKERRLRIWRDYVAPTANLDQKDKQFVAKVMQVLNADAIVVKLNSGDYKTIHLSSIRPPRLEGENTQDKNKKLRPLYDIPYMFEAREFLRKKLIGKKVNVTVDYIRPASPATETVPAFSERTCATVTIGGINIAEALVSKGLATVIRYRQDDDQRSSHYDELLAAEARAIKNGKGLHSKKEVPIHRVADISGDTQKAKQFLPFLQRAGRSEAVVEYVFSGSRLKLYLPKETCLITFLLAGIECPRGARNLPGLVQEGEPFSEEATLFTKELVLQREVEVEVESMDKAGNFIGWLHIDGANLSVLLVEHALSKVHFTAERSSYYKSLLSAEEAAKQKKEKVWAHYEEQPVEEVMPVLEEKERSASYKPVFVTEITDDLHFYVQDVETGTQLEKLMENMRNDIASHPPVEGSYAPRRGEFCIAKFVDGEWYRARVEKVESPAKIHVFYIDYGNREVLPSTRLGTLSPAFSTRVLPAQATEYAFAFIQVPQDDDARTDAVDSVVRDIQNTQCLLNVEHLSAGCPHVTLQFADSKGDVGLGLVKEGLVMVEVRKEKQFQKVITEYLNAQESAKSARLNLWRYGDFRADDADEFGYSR

Columns and labels:
[1] = molecular target: T1, Asparagine endopeptidase (AEP) (mouse (endogenous in MEFs)) (UniProt O89017); test: affinity purification with mass spectrometry; AEP immunoprecipitated from MEFs (IgG as control), silver-stained gel, bands excised, in-gel trypsin digestion, MS
T1 sequence: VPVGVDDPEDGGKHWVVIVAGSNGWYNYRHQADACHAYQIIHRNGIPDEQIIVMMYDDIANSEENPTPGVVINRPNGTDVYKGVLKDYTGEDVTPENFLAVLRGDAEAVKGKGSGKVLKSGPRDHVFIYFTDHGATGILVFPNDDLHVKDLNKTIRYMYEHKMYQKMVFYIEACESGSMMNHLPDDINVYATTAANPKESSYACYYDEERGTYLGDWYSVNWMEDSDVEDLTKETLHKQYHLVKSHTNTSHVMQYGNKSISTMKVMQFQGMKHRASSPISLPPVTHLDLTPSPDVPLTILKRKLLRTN

ZsGreen1-tagged tTmod3-C = molecular target: T2, ZsGreen1-tagged tTmod3-C (UniProt Q9NYL9); test: affinity purification with mass spectrometry; ZsGreen1-tagged tTmod3-C immunoprecipitated (IgG as control) from nuclear fractions of U87-MG cells with AEP KD and tTmod3-C rescue, silver-stained gel, MS
T2 sequence: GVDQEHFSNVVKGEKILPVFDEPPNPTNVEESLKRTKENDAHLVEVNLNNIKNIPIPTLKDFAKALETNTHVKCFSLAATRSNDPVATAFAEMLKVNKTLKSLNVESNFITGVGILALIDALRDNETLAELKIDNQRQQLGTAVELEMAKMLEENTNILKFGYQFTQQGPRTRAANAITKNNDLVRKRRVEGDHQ

With Cortactin (from UniProt Q60598 1-546) the binding [1] was “binds”.

In the case of “IQ Motif Containing GTPase Activating Protein 1 (IQGAP1) (from UniProt Q9JKF1 1-1657)”, the binding [1] is reported as “binds”.

“Staphylococcal Nuclease And Tudor Domain Containing 1 (SND1) (from UniProt Q7KZF4 1-910)” was tested, and the binding (ZsGreen1-tagged tTmod3-C) was “binds”.

B1: Tropomodulin-3 (Tmod3) (protein, UniProt Q9JHJ0 1-352)
chain: MALPFRKDLGDYKDLDEDELLGKLSESELKQLETVLDDLDPENALLPAGFRQKNQTSKSATGPFDRERLLSYLEKQALEHKDRDDYVPYTGEKKGKIFIPKQKPAQTLTEETISLDPELEEALTSASDTELCDLAAILGMHNLIADTPFCDVLGSSNGVNQERFPNVVKGEKILPVFDEPPNPTNVEESLKRIRENDARLVEVNLNNIKNIPIPTLKDFAKTLEANTHVKHFSLAATRSNDPVAVAFADMLKVNKTLKSLNMESNFITGAGVLALIDALRDNETLMELKIDNQRQQLGTSVELEMAKMLEENTNILKFGYQFTQQGPRTRAANAITKNNDLVRKRRIEGDHQ
For B1, the binding [1] was “binds”.
